Data published in the supplement of paper PMC10849652.
The list shows a part of the results.

Protein sequences, listed by entry. Tags and fused reporters are not part of them. Lines headed by an entry give the natural chain unless they say otherwise; changes in a name come on top.
UniProt P30049: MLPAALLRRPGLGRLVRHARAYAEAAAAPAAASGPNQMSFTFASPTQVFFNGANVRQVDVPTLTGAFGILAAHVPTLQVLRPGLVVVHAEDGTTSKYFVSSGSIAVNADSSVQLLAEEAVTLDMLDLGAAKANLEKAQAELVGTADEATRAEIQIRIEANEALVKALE
UniProt P61421, whole entry, looked up: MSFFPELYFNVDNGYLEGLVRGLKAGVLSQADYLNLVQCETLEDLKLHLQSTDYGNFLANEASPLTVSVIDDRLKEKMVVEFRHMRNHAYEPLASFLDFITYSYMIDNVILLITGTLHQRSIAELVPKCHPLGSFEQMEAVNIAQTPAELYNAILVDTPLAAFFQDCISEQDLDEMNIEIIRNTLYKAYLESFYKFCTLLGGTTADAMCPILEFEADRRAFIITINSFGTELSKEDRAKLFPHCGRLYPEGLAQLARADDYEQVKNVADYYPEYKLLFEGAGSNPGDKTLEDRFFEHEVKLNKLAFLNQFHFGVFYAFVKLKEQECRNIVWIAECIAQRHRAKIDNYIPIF
UniProt O75348, whole entry, looked up: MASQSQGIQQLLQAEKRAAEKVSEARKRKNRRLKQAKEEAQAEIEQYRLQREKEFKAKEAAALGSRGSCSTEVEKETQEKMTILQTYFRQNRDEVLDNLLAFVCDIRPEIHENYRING
UniProt Q9BPX5, whole entry, looked up: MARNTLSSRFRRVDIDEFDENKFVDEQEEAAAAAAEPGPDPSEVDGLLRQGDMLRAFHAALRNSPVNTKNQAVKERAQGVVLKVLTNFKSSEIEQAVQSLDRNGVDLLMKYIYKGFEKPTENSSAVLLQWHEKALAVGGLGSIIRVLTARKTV
UniProt Q9H2C2: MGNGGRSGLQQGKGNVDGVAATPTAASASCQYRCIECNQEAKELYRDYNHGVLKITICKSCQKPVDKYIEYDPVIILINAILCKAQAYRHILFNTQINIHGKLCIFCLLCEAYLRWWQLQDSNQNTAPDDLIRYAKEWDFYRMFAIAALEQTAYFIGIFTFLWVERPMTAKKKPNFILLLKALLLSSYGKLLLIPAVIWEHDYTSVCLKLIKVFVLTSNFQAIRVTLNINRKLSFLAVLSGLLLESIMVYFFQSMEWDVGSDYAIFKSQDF
UniProt Q6P4H8: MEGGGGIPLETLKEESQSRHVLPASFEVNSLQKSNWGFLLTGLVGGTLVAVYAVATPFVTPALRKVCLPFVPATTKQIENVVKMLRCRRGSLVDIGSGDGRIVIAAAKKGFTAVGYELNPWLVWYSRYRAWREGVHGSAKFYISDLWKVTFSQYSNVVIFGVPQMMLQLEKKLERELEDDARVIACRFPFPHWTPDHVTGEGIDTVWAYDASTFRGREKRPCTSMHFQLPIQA
UniProt Q8N9N2: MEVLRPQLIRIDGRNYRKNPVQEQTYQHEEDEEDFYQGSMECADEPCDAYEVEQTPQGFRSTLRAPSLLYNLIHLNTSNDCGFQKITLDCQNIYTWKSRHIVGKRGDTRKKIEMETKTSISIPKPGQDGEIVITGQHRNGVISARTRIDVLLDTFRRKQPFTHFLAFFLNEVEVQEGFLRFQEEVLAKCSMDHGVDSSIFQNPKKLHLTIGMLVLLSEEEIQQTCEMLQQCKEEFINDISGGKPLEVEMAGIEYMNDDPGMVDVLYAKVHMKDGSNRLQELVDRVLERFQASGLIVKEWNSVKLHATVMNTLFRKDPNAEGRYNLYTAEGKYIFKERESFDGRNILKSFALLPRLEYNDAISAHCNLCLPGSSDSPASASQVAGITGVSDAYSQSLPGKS
UniProt P32121, whole entry, looked up: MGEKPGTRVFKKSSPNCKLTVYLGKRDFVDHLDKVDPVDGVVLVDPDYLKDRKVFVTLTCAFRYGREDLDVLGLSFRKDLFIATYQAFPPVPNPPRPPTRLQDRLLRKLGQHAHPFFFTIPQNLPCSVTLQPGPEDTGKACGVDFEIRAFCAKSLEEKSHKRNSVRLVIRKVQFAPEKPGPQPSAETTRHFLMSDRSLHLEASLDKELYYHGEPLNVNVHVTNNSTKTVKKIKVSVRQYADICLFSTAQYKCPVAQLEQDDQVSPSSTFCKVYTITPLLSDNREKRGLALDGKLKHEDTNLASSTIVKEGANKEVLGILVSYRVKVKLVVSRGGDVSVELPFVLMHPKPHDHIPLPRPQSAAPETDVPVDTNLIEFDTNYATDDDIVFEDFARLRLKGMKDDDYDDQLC
UniProt O95260: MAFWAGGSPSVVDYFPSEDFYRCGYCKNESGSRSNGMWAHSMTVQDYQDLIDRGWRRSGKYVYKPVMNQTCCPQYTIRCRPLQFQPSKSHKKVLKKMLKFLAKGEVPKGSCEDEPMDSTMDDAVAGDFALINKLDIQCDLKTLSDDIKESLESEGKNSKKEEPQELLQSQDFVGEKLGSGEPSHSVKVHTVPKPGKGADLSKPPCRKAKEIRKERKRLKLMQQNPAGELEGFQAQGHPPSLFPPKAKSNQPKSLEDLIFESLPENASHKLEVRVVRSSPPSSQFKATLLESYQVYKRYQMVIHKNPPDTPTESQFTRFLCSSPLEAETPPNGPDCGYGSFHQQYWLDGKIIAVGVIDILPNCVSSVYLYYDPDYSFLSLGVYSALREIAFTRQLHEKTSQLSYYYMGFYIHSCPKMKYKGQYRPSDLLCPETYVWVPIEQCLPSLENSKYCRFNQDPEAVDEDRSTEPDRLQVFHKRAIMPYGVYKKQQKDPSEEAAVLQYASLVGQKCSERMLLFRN
UniProt Q96DT6: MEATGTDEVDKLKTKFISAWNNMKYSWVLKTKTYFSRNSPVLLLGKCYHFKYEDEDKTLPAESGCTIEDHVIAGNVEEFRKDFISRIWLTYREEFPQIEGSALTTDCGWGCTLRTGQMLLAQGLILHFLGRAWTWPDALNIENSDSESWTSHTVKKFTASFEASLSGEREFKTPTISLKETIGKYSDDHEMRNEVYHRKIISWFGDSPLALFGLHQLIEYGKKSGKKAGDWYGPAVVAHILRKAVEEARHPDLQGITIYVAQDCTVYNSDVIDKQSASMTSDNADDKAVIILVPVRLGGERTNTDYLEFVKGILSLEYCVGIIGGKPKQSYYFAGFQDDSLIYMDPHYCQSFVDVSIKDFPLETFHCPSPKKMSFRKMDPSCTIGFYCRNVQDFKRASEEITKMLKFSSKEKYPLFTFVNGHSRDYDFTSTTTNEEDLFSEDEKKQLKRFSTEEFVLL
UniProt O75143: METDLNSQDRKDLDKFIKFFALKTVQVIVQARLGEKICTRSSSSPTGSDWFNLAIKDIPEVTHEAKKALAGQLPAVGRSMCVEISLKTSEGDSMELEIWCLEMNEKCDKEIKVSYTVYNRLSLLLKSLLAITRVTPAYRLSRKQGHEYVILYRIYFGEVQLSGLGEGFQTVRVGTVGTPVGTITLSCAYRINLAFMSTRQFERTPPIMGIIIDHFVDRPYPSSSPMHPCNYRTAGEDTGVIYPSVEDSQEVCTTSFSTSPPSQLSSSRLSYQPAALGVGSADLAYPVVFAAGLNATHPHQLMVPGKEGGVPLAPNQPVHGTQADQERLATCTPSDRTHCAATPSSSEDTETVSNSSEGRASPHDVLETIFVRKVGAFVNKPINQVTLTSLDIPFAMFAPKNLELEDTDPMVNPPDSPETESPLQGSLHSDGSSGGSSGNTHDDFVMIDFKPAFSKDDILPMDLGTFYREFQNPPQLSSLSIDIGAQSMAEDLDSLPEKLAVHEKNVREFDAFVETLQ
UniProt P36543, whole entry, looked up: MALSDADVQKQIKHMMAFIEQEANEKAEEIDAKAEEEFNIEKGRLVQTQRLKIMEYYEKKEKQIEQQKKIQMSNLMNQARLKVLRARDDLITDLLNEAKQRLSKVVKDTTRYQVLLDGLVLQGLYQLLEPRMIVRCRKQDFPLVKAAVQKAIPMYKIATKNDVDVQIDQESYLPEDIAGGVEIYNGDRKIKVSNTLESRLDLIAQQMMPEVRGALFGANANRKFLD
UniProt Q2TAZ0: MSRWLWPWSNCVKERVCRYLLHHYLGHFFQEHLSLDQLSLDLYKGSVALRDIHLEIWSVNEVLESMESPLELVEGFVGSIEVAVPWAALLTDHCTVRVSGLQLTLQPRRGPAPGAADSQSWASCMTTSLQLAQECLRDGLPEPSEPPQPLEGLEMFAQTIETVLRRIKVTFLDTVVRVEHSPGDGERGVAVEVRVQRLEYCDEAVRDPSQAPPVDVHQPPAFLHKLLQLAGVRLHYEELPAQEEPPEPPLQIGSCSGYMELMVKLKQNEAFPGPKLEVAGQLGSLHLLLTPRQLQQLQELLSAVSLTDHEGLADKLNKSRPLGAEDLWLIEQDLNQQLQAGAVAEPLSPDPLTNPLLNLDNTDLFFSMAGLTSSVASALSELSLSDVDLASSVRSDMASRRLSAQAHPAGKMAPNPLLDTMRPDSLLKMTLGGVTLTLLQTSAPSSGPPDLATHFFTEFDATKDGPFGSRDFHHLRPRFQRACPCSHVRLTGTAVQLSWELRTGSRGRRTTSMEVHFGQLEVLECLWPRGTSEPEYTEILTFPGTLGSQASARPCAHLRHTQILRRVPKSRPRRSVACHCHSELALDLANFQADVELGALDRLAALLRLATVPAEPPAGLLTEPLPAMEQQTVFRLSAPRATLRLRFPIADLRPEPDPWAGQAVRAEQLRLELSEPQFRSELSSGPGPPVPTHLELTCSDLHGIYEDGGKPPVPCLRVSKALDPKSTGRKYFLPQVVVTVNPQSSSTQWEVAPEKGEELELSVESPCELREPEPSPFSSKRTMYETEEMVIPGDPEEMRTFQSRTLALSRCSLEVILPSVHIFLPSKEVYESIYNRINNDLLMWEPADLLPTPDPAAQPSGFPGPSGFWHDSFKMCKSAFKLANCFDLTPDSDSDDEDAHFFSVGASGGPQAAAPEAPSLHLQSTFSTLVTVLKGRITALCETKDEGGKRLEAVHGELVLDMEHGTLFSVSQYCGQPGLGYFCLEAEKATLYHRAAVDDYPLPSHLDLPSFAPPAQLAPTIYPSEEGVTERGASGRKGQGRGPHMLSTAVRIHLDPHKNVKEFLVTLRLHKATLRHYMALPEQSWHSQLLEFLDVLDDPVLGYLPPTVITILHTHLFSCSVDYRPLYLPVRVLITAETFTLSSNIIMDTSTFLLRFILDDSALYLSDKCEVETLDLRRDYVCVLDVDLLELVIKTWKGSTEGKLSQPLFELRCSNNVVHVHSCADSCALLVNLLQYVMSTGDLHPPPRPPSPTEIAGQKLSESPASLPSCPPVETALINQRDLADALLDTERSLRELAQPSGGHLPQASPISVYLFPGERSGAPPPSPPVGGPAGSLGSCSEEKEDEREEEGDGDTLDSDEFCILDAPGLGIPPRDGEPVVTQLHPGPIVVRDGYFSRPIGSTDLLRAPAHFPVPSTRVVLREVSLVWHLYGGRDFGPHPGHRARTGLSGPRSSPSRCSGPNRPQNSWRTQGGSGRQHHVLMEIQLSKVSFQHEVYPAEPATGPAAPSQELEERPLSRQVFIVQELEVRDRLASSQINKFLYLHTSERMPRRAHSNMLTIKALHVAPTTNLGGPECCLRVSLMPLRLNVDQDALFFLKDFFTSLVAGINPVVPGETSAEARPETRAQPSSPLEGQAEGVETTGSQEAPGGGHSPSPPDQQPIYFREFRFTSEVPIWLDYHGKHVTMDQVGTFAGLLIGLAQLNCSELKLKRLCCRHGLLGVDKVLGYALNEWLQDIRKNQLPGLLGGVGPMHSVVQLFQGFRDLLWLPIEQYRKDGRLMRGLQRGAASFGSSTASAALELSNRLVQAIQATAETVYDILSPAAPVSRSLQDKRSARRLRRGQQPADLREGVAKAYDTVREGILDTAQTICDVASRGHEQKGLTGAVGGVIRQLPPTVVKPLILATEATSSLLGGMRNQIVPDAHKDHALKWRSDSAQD
UniProt P56381: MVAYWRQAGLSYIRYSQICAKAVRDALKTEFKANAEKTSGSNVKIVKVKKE
UniProt P31939: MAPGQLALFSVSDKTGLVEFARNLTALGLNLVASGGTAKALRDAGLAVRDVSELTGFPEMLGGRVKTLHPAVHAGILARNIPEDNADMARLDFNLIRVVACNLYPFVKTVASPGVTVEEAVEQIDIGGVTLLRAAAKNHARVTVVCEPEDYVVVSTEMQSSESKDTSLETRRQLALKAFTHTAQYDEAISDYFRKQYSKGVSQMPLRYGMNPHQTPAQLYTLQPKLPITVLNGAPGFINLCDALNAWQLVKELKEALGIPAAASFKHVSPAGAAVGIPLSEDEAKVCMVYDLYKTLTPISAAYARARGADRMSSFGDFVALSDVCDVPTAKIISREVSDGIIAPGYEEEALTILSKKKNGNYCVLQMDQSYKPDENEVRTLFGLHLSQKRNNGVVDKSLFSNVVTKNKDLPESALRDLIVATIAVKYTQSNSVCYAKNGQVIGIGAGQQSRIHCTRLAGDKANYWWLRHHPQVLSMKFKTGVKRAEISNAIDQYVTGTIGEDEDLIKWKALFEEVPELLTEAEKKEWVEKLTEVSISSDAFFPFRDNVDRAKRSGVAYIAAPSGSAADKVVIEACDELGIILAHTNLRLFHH

Legend:
Experiment in all cases: log2 fold change, soluble protein after heating vs DMSO (PISA); higher = thermal stabilisation; K562 cells, 10 uM, 30 min; active = over 0.2 and 3.5 SD of the protein, either way, in both replicates (recomputed)
[1] = compound: CC[C@@H]1C(=O)N(C)c2cnc(Nc3ccc(C(=O)NC4CCN(C)CC4)cc3OC)nc2N1C1CCCC1
How it was run: (§1)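 K562 cells at 2×10^6 cells/mL were exposed to 10 μM compound for 30 min, then aliquots were heated for 3 min across 48°C-58°C, pooled, and extracted in PBS containing 0.5% NP-40 at 4°C. The supernatant after 21,000xg for 90 min was taken as soluble protein and measured by TMTpro 16plex LC-MS/MS with channel sums equalised. Thermal stability is reported relative to control samples, with values from duplicates. Fold changes are given on a log2 scale.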

[2] = compound: CC[C@@H]1C(=O)N(C)c2cnc(Nc3ccc(C(=O)N[C@H]4CC[C@H](N5CCN(CC6CC6)CC5)CC4)cc3OC)nc2N1C(C)C [volasertib]
How it was run: as §1

[3] = compound: CC[C@H](C)N1C=C(C2=C(C=C(C=C21)C3=CN=C(C=C3)N4CCNCC4)C(=O)NCC5=C(C=C(NC5=O)C)C)C
How it was run: as §1

[4] = compound: CC[C@H](C)[C@@H](C(=O)N[C@@H]([C@@H](C)O)C(=O)N[C@@H](CC(C)C)C(=O)[C@]1(CO1)C)NC(=O)[C@H]([C@@H](C)CC)N(C)C(=O)C [epoxomicin]
How it was run: as §1

[5] = compound: CCn1c(C(=O)N(C2CC2)C2CC2)cc2c3c(ncn3C)c(Nc3cc(C)n(C)n3)nc21
How it was run: as §1

[6] = compound: CCn1cc(-c2ccnc3[nH]c(-c4cccc(CN(C)C)c4)cc23)c(-c2ccc(NC(=O)N(C)C)cc2)n1
How it was run: as §1

[7] = compound: CN(C)CC(=O)Nc1ccc2[nH]c(=O)c3ccccc3c2c1
How it was run: as §1

[8] = compound: CN(CCOC1=CC=C(C=C1)C[C@H]2C(=O)NC(=O)S2)C3=CC=CC=N3 (racemic) [rosiglitazone]
How it was run: as §1

[9] = compound: CN1C2=C(C3=C1C(=O)N(N=C3)CC4=CC(=CC=C4)N)SC(=C2)S(=O)C
How it was run: as §1

[10] = compound: CN1CCC(CNc2ccc3ncc(-c4cccc(OC(F)(F)F)c4)n3n2)CC1
How it was run: as §1

[11] = compound: CN1CCN(CCOc2cc(OC3CCOCC3)c3c(Nc4c(Cl)ccc5c4OCO5)ncnc3c2)CC1 [saracatinib]
How it was run: as §1

[12] = compound: CN1CCN(c2nc(C3=C(c4c[nH]c5ccccc45)C(=O)NC3=O)c3ccccc3n2)CC1 [sotrastaurin]
How it was run: as §1

[13] = compound: CN1CC[C@H](c2c(O)cc(O)c3c(=O)cc(-c4ccccc4Cl)oc23)[C@H](O)C1 [alvocidib]
How it was run: as §1

[14] = compound: CN1CCc2c(c3ccccc3n2Cc2ccc(C(=O)NO)cc2)C1 [Tubastatin A]
How it was run: as §1

[15] = compound: CNC(=O)C1=CC=CC=C1NC2=NC(=NC=C2Cl)NC3=C(C=C(C=C3)N4CCOCC4)OC
How it was run: as §1

[16] = compound: CNC(=O)c1ccc(Nc2ncc(C(F)(F)F)c(NCc3nccnc3N(C)S(C)(=O)=O)n2)cc1 [defactinib]
How it was run: as §1

[17] = compound: CNCc1ccc(-c2[nH]c3cc(F)cc4c3c2CCNC4=O)cc1 [rucaparib]
How it was run: as §1

[18] = compound: CNc1nc(-c2ccc3c(N)n[nH]c3c2)cc(N2C[C@@H](C(=O)NC3CCCCC3)CC[C@H]2C)n1
How it was run: as §1

[19] = compound: COC(=O)N[C@@H](C)CNc1nccc(-c2cn(C(C)C)nc2-c2cc(Cl)cc(NS(C)(=O)=O)c2F)n1 [encorafenib]
How it was run: as §1

[20] = compound: COC(=O)[C@H](CCSC)NC(=O)C1=C(C=C(C=C1)NC[C@H](CS)N)C2=CC=CC=C2
How it was run: as §1

Measured: log2 fold change

ATP5F1D (UniProt P30049)
inactive: [1] 0.028 | [2] -0.22 | [3] -0.025 | [4] 0.033 | [5] -0.016 | [6] 0.018 | [7] 0.023 | [8] -0.052 | [9] -0.004 | [10] 0.085 | [11] -0.005 | [12] 0.02 | [13] 0.033 | [14] 0.019 | [15] 0.006 | [16] -0.03 | [17] -0.069 | [18] -0.025 | [19] -0.011 | [20] 0

ATP6V0D1 (UniProt P61421)
inactive: [1] -0.11 | [2] 0.117 | [3] -0.012 | [4] 0.024 | [5] 0.059 | [6] 0.023 | [7] 0.003 | [8] 0 | [9] 0.099 | [10] 0.026 | [11] -0.327 | [12] -0.02 | [13] 0.047 | [14] 0.1 | [15] -0.026 | [16] 0.073 | [17] 0.07 | [18] -0.06 | [19] 0.135 | [20] -0.014

ATP6V1G1 (UniProt O75348)
inactive: [1] -0.066 | [2] -0.031 | [3] 0.002 | [4] -0.015 | [5] 0.028 | [6] -0.093 | [7] -0.065 | [8] -0.04 | [9] -0.037 | [10] -0.128 | [11] -0.087 | [12] 0.023 | [13] 0.002 | [14] -0.026 | [15] 0.004 | [16] 0.034 | [17] 0.038 | [18] 0.006 | [19] -0.013 | [20] 0.049

ARPC5L (UniProt Q9BPX5)
inactive: [1] 0.016 | [2] -0.008 | [3] -0.052 | [4] 0.028 | [5] 0.025 | [6] -0.008 | [7] -0.007 | [8] -0.033 | [9] -0.06 | [10] 0.039 | [11] 0.065 | [12] -0.04 | [13] 0.02 | [14] -0.019 | [15] -0.012 | [16] -0.023 | [17] -0.004 | [18] -0.054 | [19] -0.001 | [20] 0.038

ARV1 (UniProt Q9H2C2)
inactive: [1] 0.11 | [2] -0.214 | [3] 0.002 | [4] 0.068 | [5] -0.006 | [6] -0.039 | [7] 0.047 | [8] 0.004 | [9] -0.101 | [10] 0.116 | [11] 0.074 | [12] 0.024 | [13] 0.009 | [14] -0.021 | [15] 0.032 | [16] -0.026 | [17] -0.044 | [18] -0.062 | [19] 0.106 | [20] -0.032

ATPSCKMT (UniProt Q6P4H8)
inactive: [1] 0.108 | [2] 0.058 | [3] -0.032 | [4] 0.019 | [5] 0.018 | [6] 0.006 | [7] 0.014 | [8] 0.033 | [9] -0.175 | [10] -0.129 | [11] -0.062 | [12] 0.016 | [13] -0.193 | [14] -0.026 | [15] 0.06 | [16] -0.096 | [17] -0.061 | [18] -0.072 | [19] 0.015 | [20] -0.001

ASCC1 isoform 2 (UniProt Q8N9N2)
inactive: [1] 0.017 | [2] 0.018 | [3] 0.057 | [4] 0.02 | [5] -0.041 | [6] -0.012 | [7] -0.054 | [8] 0.012 | [9] 0.02 | [10] -0.218 | [11] -0.074 | [12] -0.039 | [13] -0.044 | [14] 0.027 | [15] -0.04 | [16] 0.002 | [17] 0.004 | [18] 0.025 | [19] 0.056 | [20] -0.029

ARRB2 isoform 4 (UniProt P32121)
inactive: [1] -0.05 | [2] -0.028 | [3] -0.005 | [4] -0.038 | [5] 0.041 | [6] 0.016 | [7] -0.017 | [8] 0.004 | [9] 0.039 | [10] -0.007 | [11] -0.07 | [12] -0.042 | [13] -0.029 | [14] -0.027 | [15] -0.018 | [16] -0.034 | [17] 0.003 | [18] -0.142 | [19] -0.011 | [20] -0.021

ATE1 isoform 2 (UniProt O95260)
inactive: [1] -0.003 | [2] -0.06 | [3] -0.066 | [4] 0.068 | [5] -0.017 | [6] -0.157 | [7] 0.053 | [8] 0.039 | [9] -0.046 | [10] -0.061 | [11] 0.015 | [12] 0.063 | [13] -0.104 | [14] -0.052 | [15] 0.019 | [16] -0.099 | [17] -0.224 | [18] -0.043 | [19] 0.059 | [20] 0.029

ATG4C (UniProt Q96DT6)
inactive: [1] -0.018 | [2] -0.191 | [3] 0.084 | [4] -0.052 | [5] -0.195 | [6] -0.006 | [7] -0.005 | [8] 0.023 | [9] 0.015 | [10] -0.024 | [11] 0.086 | [12] -0.093 | [13] -0.23 | [14] 0.046 | [15] 0.024 | [16] -0.103 | [17] -0.057 | [18] -0.014 | [19] 0.011 | [20] -0.057

ATG13 isoform 5 (UniProt O75143)
inactive: [1] 0.001 | [2] -0.118 | [3] -0.044 | [4] 0.049 | [5] -0.039 | [6] -0.065 | [7] -0.019 | [8] 0.027 | [9] -0.026 | [10] -0.016 | [11] 0.011 | [12] 0.018 | [13] -0.052 | [14] 0.092 | [15] 0.053 | [16] -0.034 | [17] 0.092 | [18] -0.092 | [19] -0.028 | [20] 0.009

ATG101 (UniProt Q9BSB4)
inactive: [1] -0.009 | [2] -0.018 | [3] 0.001 | [4] 0.043 | [5] -0.055 | [6] 0.112 | [7] -0.009 | [8] -0.024 | [9] -0.062 | [10] -0.039 | [11] 0.027 | [12] -0.028 | [13] 0.026 | [14] 0.144 | [15] 0.014 | [16] -0.092 | [17] -0.082 | [18] -0.059 | [19] 0.053 | [20] 0.056

ATP6V1E1 (UniProt P36543)
inactive: [1] -0.057 | [2] 0.037 | [3] 0.018 | [4] 0.007 | [5] 0.035 | [6] -0.161 | [7] 0.03 | [8] 0.033 | [9] -0.008 | [10] 0.015 | [11] -0.092 | [12] 0.022 | [13] -0.036 | [14] 0.019 | [15] -0.03 | [16] -0.045 | [17] 0.013 | [18] 0.022 | [19] 0.01 | [20] -0.043

ATG2A isoform 3 (UniProt Q2TAZ0)
inactive: [1] -0.019 | [2] -0.119 | [3] -0.007 | [4] 0.015 | [5] -0.007 | [6] 0.004 | [7] 0.02 | [8] 0.025 | [9] -0.057 | [10] -0.176 | [11] 0.065 | [12] 0.005 | [13] -0.044 | [14] -0.034 | [15] -0.05 | [16] -0.053 | [17] -0.034 | [18] -0.067 | [19] 0.053 | [20] -0.006

Quoted from the listing (2 entries):
ATP6V1E1 (UniProt P36543)
inactive: [1] -0.057 | [2] 0.037 | [3] 0.018 | [4] 0.007 | [5] 0.035 | [6] -0.161 | [7] 0.03 | [8] 0.033 | [9] -0.008 | [10] 0.015 | [11] -0.092 | [12] 0.022 | [13] -0.036 | [14] 0.019 | [15] -0.03 | [16] -0.045 | [17] 0.013 | [18] 0.022 | [19] 0.01 | [20] -0.043

ATG2A isoform 3 (UniProt Q2TAZ0)
inactive: [1] -0.019 | [2] -0.119 | [3] -0.007 | [4] 0.015 | [5] -0.007 | [6] 0.004 | [7] 0.02 | [8] 0.025 | [9] -0.057 | [10] -0.176 | [11] 0.065 | [12] 0.005 | [13] -0.044 | [14] -0.034 | [15] -0.05 | [16] -0.053 | [17] -0.034 | [18] -0.067 | [19] 0.053 | [20] -0.006

(continued)

ATP5F1E (UniProt P56381)
inactive: [1] -0.03 | [2] 0.094 | [3] -0.033 | [4] 0.028 | [5] 0.017 | [6] 0.036 | [7] -0.085 | [8] -0.065 | [9] 0.042 | [10] 0.079 | [11] 0.067 | [12] 0.036 | [13] 0.081 | [14] -0.059 | [15] 0.046 | [16] 0.011 | [17] 0.007 | [18] -0.021 | [19] -0.036 | [20] 0.028

ATIC (UniProt P31939)
inactive: [1] -0.032 | [2] 0.021 | [3] 0.029 | [4] 0.04 | [6] -0.016 | [7] 0.023 | [9] -0.123 | [10] 0.029 | [11] -0.013 | [12] -0.001 | [14] 0.008 | [15] 0.087 | [16] -0.059 | [17] -0.05 | [18] 0.044 | [19] -0.011 | [20] -0.028
